“And” between values parts separate entries of the source, which are not always exact repeats. Equal values may be shown once. At least one read-out could not be matched to a standard name with certainty.
Biological target: T1, human liver Glucokinase (GK) (Homo sapiens, UniProt P35557)
T1 construct: His6; made in house; host or cells: Escherichia coli
T1 sequence (P35557 1-466 isoform P35557-2): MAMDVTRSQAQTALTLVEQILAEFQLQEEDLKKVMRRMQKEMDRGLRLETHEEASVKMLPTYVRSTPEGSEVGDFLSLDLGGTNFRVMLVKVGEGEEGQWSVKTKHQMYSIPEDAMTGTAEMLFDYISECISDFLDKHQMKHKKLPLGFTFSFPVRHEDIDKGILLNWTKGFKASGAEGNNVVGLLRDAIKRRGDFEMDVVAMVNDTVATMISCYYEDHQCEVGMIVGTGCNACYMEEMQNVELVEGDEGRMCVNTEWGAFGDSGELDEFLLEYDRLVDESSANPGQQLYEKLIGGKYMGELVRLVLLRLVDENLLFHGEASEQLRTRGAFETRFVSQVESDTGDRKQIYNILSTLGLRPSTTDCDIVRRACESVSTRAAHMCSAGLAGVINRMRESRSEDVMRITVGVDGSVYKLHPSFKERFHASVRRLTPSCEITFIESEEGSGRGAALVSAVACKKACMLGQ
Assay: Glucokinase enzyme assay, liver GK
Assay type: biochemical
Details: increase in GK activity above vehicle control, compound 50 μM, 12 mM glucose
Text: An enzymatic Glucokinase (GK) assay using purified recombinant human liver/pancreas enzyme was used to evaluate the effects of potential small molecule modulators.
In this assay, GK catalyzes glucose phosphorylation in the presence of ATP. The product of this reaction, glucose-6-phosphate, was then oxidized by an excess of glucose-6-phosphate dehydrogenase to produce gluconate-6-phosphate with concomitant reduction of nicotinamide adenine dinucleotide (NAD). […] Human GK (Liver/Pancreas) was expressed in Escherichia coli as a (His) 6-tagged fusion protein and was purified by metal chelate affinity chromatography. The assay was performed in a final incubation volume of 80 μl in a 96-well clear low UV absorption plates. The incubation mixture consisted of 25 mM HEPES, 2 mM MgSO4, 1 mM dithiothreotol (DTT), 1 mg/mL bovine serum albumin (BSA), 1 mM ATP, 1 mM NAD, and 12 mM glucose, 10 units per mL glucose-6-phosphate dehydrogenase, and +/−300 ng per mL GK. […] Production of reduced NAD (Nicotinamide Adenine Dinucleotide) was measured as changes in absorption at 340 nm in 96-well plate reader (Envision model #2101 Multilabel Plate reader). % Activation @ 50 μM was calculated as the percentage increase in GK activity above the vehicle control with the effective concentration of the compound being 50 μM. […]

Row | SMILES | % Activation @ 50 μM
1 | COC(=O)c1ccc(NC(=O)CCC2c3ccccc3C(=O)N2Cc2ccccc2)nc1 (centres unmarked) [Compound 2, 6-[3-(2-Benzyl-3-oxo-2,3-dihydro-1H-isoindol-1-yl)-propionylamino]-nicotinic acid methyl ester] | 150% and 112% and 97%
2 | O=C(CCC1c2ccccc2C(=O)N1Cc1ccccc1)Nc1ccccn1 (centres unmarked) [Compound 3, 3-(2-Benzyl-3-oxo-2,3-dihydro-1H-isoindol-1-yl)-N-pyridin-2-yl-propionamide] | 176% and 188% and 141%

Source: patent US8796313B2, “Substituted dihydroisoindolones as allosteric modulators of glucokinase” (Janssen Pharmaceutica N.V., priority 2005, dated 2014)
